Earlier results as cited in article PMC9804871, “Effect of Opicapone on Levodopa Pharmacokinetics in Patients with Fluctuating Parkinson's Disease” (Movement Disorders, 2022).

Conditions: cited from earlier work

## N[C@@H](Cc1ccc(O)c(O)c1)C(=O)O [LD, levodopa]
  half-life of LD: ≈ 90 minutes
